# Laboratory results from PubChem BioAssay AID540303 (National Center for Advancing Translational Sciences (NCATS), 2011).
# In all, about 330,000 compounds went through this assay and about 1,000 (0.3%) were called active. The shares of active, inactive and inconclusive entries below differ from those in the screen. The call rests on the fitted dose curve; in most records, active means well fitted inhibition curve with a large enough effect; inconclusive means small, poorly fitted or top-dose-only effect; inactive means no such curve, though single readings can be large or run the other way; tested in mouse RAW 264.7 cells. Potencies beside an inconclusive call are fits to weak or partial responses and may not hold up.
# Test: qHTS for Inhibitors of Cell Surface uPA Generation; further: nearly all actives have a fitted effect of over 55% in size
# Conditions: cell surface uPA generation assay; series mostly up to 38.3 µM
# How it was run: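 Intracellular ATP by ATPlite luminescence serves as read-out: inhibited cell-surface uPA generation prevents LF translocation, preserving ATP. Murine RAW 264.7 macrophages were treated 24 h at 37 C with five-fold serial dilutions, up to 38.3 uM final.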
# Potency means the concentration at half of the fitted maximal effect.
row,Structure (SMILES),Potency
1,Cc1ccc(NC(=O)c2cccc(S(=O)(=O)N3CCN(c4ccccc4)CC3)c2)nc1,inactive
2,Cc1no[n+]([O-])c1COc1cccc(/C=N/Nc2nncn2N)c1,"inconclusive: 12.6 µM [inhibitor, single point]"
3,Cc1ccc(-c2nn(C)c(=O)c3ccccc23)cc1S(=O)(=O)N1CCCC1,"inconclusive: 6.31 µM [inhibitor, partial curve, poor fit]"
4,CC(C)Cc1nc(N2CCN(C(=O)c3ccco3)CC2)c(C#N)c2c1CCC2,inactive
5,CNC[C@H](CC1CCCCC1)NC[C@H](CO)NCCc1cccc(C(F)(F)F)c1,active: 7.94 µM
6,O=C1N/C(=N\N=C\c2cccnc2)SC1Cc1ccc(SC(F)F)cc1 (stereo not drawn),inactive
7,C#CCOCCOCCOCCNc1nc(N2CCN(C(=O)CCCCCCCCCCNC(=O)[C@H]([C@@H](C)CC)n3cc(CCCCCN)nn3)CC2)nc(N2CCN(C(=O)CCCCCCCCCCNC(=O)[C@@H]([C@H](C)O)n3cc(C)nn3)CC2)n1,"inconclusive: 12.6 µM [inhibitor, single point]"
8,Cc1cccc(OCCNC(=O)c2ccc(Cl)c(S(=O)(=O)NCc3cccnc3)c2)c1,"inconclusive: 3.55 µM [inhibitor, full curve, poor fit]"
9,C/C(=N\NC(=O)c1ccc(Br)cc1)c1cccnc1,inactive
10,COc1ccc(S(=O)(=O)N2CCCC2C(=O)Nc2ccc(O)cc2)cc1 (stereo not drawn),"inconclusive: 20 µM [inhibitor, single point]"
11,Cc1cc(C)cc(NC(=O)COC(=O)Cn2cnc3c2c(=O)n(C)c(=O)n3C)c1,"inconclusive: 7.08 µM [inhibitor, partial curve, poor fit]"
12,COc1ccc(OCCOC(=O)CNC(=O)c2ccc(Cl)cc2Cl)cc1,inactive
13,Cc1c(NC(=O)COC(=O)c2ccc(O)cc2)c(=O)n(-c2ccccc2)n1C,"inconclusive: 2.82 µM [inhibitor, single point]"
14,Nc1cc(-c2ccncc2)c[nH]c1=O,inactive
15,Cc1cccnc1NC(=O)CCc1nnc2ccc(NCc3ccco3)nn12,"inconclusive: 2.51 µM [inhibitor, partial curve, poor fit]"
16,O=C1c2oc3ccc(Cl)cc3c(=O)c2C(c2ccccn2)N1CCCN1CCOCC1 (stereo not drawn),"inconclusive: 8.91 µM [inhibitor, single point]"
17,COC(=O)c1cc(NC(=O)CN(c2ccc(OC)cc2)S(=O)(=O)c2ccc(F)cc2)ccc1Cl,inactive
18,Cc1ccc(N/C=C2\CCCCC2=O)nc1,inactive
19,COc1ccc(CCNC(=O)C(=O)NCc2cccs2)cc1OC,"inconclusive: 7.94 µM [inhibitor, partial curve, poor fit]"
20,CN(CCOc1ccc(CC2SC(=O)NC2=O)cc1)c1ccccn1 (stereo not drawn),"inconclusive: 5.01 µM [inhibitor, partial curve, poor fit]"
21,O=C(Nc1cc(-c2ccccc2)[nH]n1)c1ccc(Cl)cc1,"inconclusive: 5.62 µM [inhibitor, partial curve, poor fit]"
22,CC(=O)N1CCN(C(=O)COC(=O)/C=C/c2ccccc2[N+](=O)[O-])CC1,"inconclusive: 0.708 µM [inhibitor, partial curve, poor fit]"
23,O=C(NC1CC1)C1CCN(S(=O)(=O)c2ccc(Cl)c([N+](=O)[O-])c2)CC1,"inconclusive: 11.2 µM [inhibitor, partial curve, poor fit]"

# Among those listed so far, these contain fluorine.
row,Structure (SMILES),Potency
5,CNC[C@H](CC1CCCCC1)NC[C@H](CO)NCCc1cccc(C(F)(F)F)c1,active: 7.94 µM
6,O=C1N/C(=N\N=C\c2cccnc2)SC1Cc1ccc(SC(F)F)cc1 (stereo not drawn),inactive
17,COC(=O)c1cc(NC(=O)CN(c2ccc(OC)cc2)S(=O)(=O)c2ccc(F)cc2)ccc1Cl,inactive

# Later entries:

row,Structure (SMILES),Potency
1,Cn1ccsc1=NC(=O)c1ccc([N+](=O)[O-])o1,"inconclusive: 22.4 µM [inhibitor, single point]"
2,COC(=O)C1=C(C)N(Cc2ccccc2)C(=NCC(C)C)N[C@H]1c1cccc(C(F)(F)F)c1,"inconclusive: 17.8 µM [inhibitor, single point]"
3,Cc1ccc(C)c(S(=O)(=O)Nc2ccc(O)c3ccccc23)c1,"inconclusive: 11.2 µM [inhibitor, partial curve, poor fit]"
4,O=C(Nc1ccccc1)c1cccc(N2CCCC2=O)c1,inactive
5,Cc1cc(C)c(C)c(N=Nc2nc3ccccc3n2C)c1C,inactive
6,Cc1ccc2c(CN3CCC(C)CC3)cc(=O)oc2c1C,"inconclusive: 2.82 µM [inhibitor, full curve, poor fit]"
7,C/C(=N\Nc1cc(C)nc(-c2ccccc2O)n1)c1ccccc1O,"inconclusive: 3.55 µM [inhibitor, partial curve, poor fit]"
8,CCOc1cc(OCC)c(C(C)=O)cc1OCC,inactive
9,CCN(CC)C(=S)Nc1cc(C(=O)OC)ccc1C(=O)OC,inactive
10,CCCC(=O)Nc1c(-c2cccc(OC)c2)c(=O)c2ccccc2n1C,"inconclusive: 1.26 µM [inhibitor, partial curve, poor fit]"
11,COc1ccc(S(=O)(=O)Nc2cc3[nH]c(=O)oc3cc2C)cc1,"inconclusive: 10 µM [inhibitor, single point]"
12,CC1SCC(=NOCc2ccccc2)CS1 (stereo not drawn),inactive
13,CCn1ncc(N(C)N)c(Cl)c1=O,inactive
14,CCC(=O)c1ccc(OCC(O)Cn2nc(C)c(Br)c2C)cc1 (stereo not drawn),"inconclusive: 31.6 µM [inhibitor, single point]"
15,O=C(COC(=O)CNC(=O)c1ccco1)Nc1ncc(Cl)cc1Cl,"inconclusive: 12.6 µM [inhibitor, partial curve, poor fit]"
16,CCOC(=O)C1=C(C)N(C[C@@H]2CC[C@@H](Cc3ccc(-c4ccccc4)cc3)O2)C(=O)NC1c1cccc([N+](=O)[O-])c1 (stereo partly drawn),inactive
17,CCN1/C(=C/C=C/C=C/C=C/c2sc3ccccc3[n+]2CC)Sc2ccccc21,"inconclusive: 4.47 µM [inhibitor, partial curve, poor fit]"
18,c1cncc(-c2noc(-c3ccc4ccccc4c3)n2)c1,"inconclusive: 17.8 µM [inhibitor, partial curve, poor fit]"
19,Cc1cc(C2CC(=O)Nc3ccccc3S2)c(C)s1 (stereo not drawn),"inconclusive: 4.47 µM [inhibitor, partial curve, poor fit]"
20,CCOC(=O)c1ncccc1NC(=O)CC(=O)Nc1cccnc1C(=O)OCC,inactive
21,O=c1[nH]c2ccccc2nc1/C=C(\O)c1cccs1,inactive
22,CCOc1ccc(CNC(=O)CCCn2nc(CC)n3c(cc4occc43)c2=O)cc1,"inconclusive: 12.6 µM [inhibitor, single point]"
23,Cc1cc(C)cc(Nc2nc(-c3ccc(S(=O)(=O)N4CCCC4)cc3)cs2)c1,"inconclusive: 10 µM [inhibitor, partial curve, poor fit]"

row,Structure (SMILES),Potency
1,O=C(NCc1nc2ccccc2[nH]1)C1=C[C@H](C2CCCCC2)C[C@H](OCc2ccc(CO)cc2)O1,"inconclusive: 31.6 µM [inhibitor, single point]"
2,CC(C)C(=O)NC(c1ccc(Cl)cc1Cl)c1ccc2cccnc2c1O (stereo not drawn),"inconclusive: 10 µM [inhibitor, partial curve, poor fit]"
3,CCOC(=O)c1c(NC(=O)CSc2nnc(-c3c[nH]c4ccccc34)n2CC)sc2c1CCCC2,"inconclusive: 8.91 µM [inhibitor, single point]"
4,Cn1c(=O)cc(SCC(=O)N2CCCC2)c2ccc(Cl)cc21,inactive
5,CCCCn1c(N)c(S(=O)(=O)c2ccc(C)cc2)c2nc3ccccc3nc21,inactive
6,COc1cc(CN2CCCC(C(=O)c3ccc4c5c(cccc35)CC4)C2)cc(OC)c1O (stereo not drawn),"inconclusive: 11.2 µM [inhibitor, partial curve, poor fit]"
7,CC(C)C(=O)N1CCN(c2nc(-c3ccc(Cl)cc3)cs2)CC1,"inconclusive: 28.2 µM [inhibitor, single point]"
8,CCc1nonc1NC(=O)c1oc2ccc(Br)cc2c1C,inactive
9,COC(=O)CNC(=O)COC(=O)/C=C/c1ccccc1[N+](=O)[O-],inactive
10,Cc1ccc(-c2cc(=O)c3ccccc3[nH]2)cc1,active: 11.2 µM
11,Cc1cccc(CS(=O)(=O)c2ncc(Cl)c(C(=O)Nc3c(C)cccc3C)n2)c1,"inconclusive: 5.01 µM [inhibitor, single point]"
12,CCN(CC)CCCN1C(=O)C(O)=C(C(=O)c2cc3ccccc3o2)C1c1ccccn1 (stereo not drawn),inactive
13,COc1ccc(NC(=O)CSc2ccc3nnc(-c4cccnc4)n3n2)cc1,"inconclusive: 28.2 µM [inhibitor, partial curve, poor fit]"
14,CC(CC(=O)Nc1ccc2c(c1)OCCO2)c1ccccc1 (stereo not drawn),inactive
15,CCOC(=O)c1c(C)oc2c1C(=O)c1ccccc1C2=O,"inconclusive: 2.82 µM [inhibitor, single point]"
16,Cc1nc2ccccn2c1C(=O)NC1CCCc2ccccc21 (stereo not drawn),"inconclusive: 11.2 µM [inhibitor, partial curve, poor fit]"
17,Cc1cc[n+](CC[n+]2ccc(C)cc2)cc1,inactive
18,COc1ccc(/C=N\NC(=O)c2c(C)nc3ccc(Br)cn23)cc1,"inconclusive: 0.01 µM [inhibitor, full curve, poor fit]"
19,Cc1ccc(NC(=O)Cn2ncc(Cl)c(Cl)c2=O)cc1S(=O)(=O)N1CCCCC1,"inconclusive: 31.6 µM [inhibitor, partial curve, poor fit]"
20,CCN(CC(=O)Nc1cc(Cl)ccc1Cl)C(=O)c1ccc(-n2cccn2)cc1,"inconclusive: 0.0079 µM [inhibitor, full curve, poor fit]"
21,COc1ccc(NC(=O)c2ccco2)c2ccccc12,"inconclusive: 17.8 µM [inhibitor, partial curve, poor fit]"
22,CCN(c1ccc(OC)cc1)S(=O)(=O)c1nnc(NC(=O)COc2ccccc2)s1,"inconclusive: 10 µM [inhibitor, single point]"

# Rewritten with tabs: part of the list above.
row	Structure (SMILES)	Potency
1	O=C(NCc1nc2ccccc2[nH]1)C1=C[C@H](C2CCCCC2)C[C@H](OCc2ccc(CO)cc2)O1	inconclusive: 31.6 µM [inhibitor, single point]
8	CCc1nonc1NC(=O)c1oc2ccc(Br)cc2c1C	inactive
14	CC(CC(=O)Nc1ccc2c(c1)OCCO2)c1ccccc1 (stereo not drawn)	inactive
